From patent US9642870B2, “Composition for preventing or alleviating atopic dermatitis comprising immunosuppressant and transglutaminase 2 inhibitor” (Dongguk University Industry-Academic Cooperation Foundation, priority 2011, dated 2017)
At least one compound was matched to its structure with a doubt left.

Tested on: IFN-g, IL-4, IL-5
Assay: Immunosuppressive effects of immunosuppressants administered alone (IFN-g, IL-4, IL-5 concentrations)
Format: cell-based
Conditions: FIGS. 24 to 26
Excerpt: Further, immunosuppressive effects according to the kinds of immunosuppressants were further confirmed through experiments conducted to determine a proper dosage concentration.

**Q.** With `C[C@@H]1C[C@H]2[C@@H]3CCC4=CC(=O)C=C[C@]4(C)[C@@]3(F)[C@@H](O)C[C@]2(C)[C@@]1(O)C(=O)CO` [dexamethasone] as the compound, how does the “immunosuppressive effect (changes in concentrations of IFN-g, IL-4, IL-5)” value read?
**A.** Its value is “suppressed an immune response”.
